# Measured values as given in the supplement of paper PMC3334620.
# Whole data set: some 33,000 sequences, median “E-score (-0.5 to 0.5)” near -0.016, cut for the highest 2% near 0.3. The list shows a part of the results.
# Target: T1, Yer184c (UniProt P39961)
# T1 sequence: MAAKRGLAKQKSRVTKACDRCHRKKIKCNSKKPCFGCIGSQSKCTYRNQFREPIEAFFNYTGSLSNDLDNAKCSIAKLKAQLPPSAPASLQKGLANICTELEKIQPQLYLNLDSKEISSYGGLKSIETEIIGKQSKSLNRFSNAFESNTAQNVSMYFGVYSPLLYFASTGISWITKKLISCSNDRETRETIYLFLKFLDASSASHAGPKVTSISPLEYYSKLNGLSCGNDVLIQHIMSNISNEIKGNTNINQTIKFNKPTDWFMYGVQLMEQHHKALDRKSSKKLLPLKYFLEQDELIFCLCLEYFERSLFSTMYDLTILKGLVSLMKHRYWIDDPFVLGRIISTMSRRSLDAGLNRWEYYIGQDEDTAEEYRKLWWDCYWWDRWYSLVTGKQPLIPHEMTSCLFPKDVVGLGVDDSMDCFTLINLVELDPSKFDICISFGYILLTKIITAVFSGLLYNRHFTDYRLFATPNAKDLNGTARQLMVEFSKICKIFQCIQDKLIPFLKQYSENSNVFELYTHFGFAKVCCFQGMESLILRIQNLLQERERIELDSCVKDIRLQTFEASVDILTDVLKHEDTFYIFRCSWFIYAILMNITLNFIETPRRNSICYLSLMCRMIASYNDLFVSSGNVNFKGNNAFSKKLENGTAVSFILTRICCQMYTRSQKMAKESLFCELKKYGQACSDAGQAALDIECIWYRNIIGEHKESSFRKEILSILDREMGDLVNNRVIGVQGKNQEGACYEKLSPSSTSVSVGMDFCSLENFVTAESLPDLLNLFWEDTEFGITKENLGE
# Test: PBM E-score (8-mer binding enrichment) (E-score (-0.5 to 0.5)); higher = stronger / more preferred TF binding
# Details: protein concentration: 100 nM; construct: GST-full length
# In short: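 Yeast transcription factors carrying a GST tag, as full-length proteins or DNA-binding domains, were produced by PURExpress in vitro transcription/translation. About 100-200 nM protein was applied to universal all-10-mer Agilent arrays, double-stranded by primer extension on fresh or once-stripped slides. Bound protein was detected with fluorescent anti-GST, and scans were normalised with masliner. The Universal PBM Analysis Suite gave each ungapped eight-base word, pooled with its reverse complement, an E-score, a modified Wilcoxon-Mann-Whitney statistic.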
row,Sequence,PBM E-score
1,AGCATGTC,-0.125
2,ATATTAGG,0.0437
3,CAACATCC,0.0105
4,CGACAAGC,-0.166
5,CGCTGTGC,-0.0524
6,CCGGGAGC,0.162
7,CCAAAGTA,-0.0504
8,AGGCTGAG,-0.173
9,CAAACCAC,-0.145
10,ACATCAAT,0.0812
11,GAAGTTAA,0.0852
12,AAATACAT,-0.0718
13,ACAACTGC,0.0629
14,AGGGACCT,-0.155
15,ATGATCTG,0.075
16,CCTGATCG,-0.0704
17,TCCTGCCA,-0.22
18,GAGCTAAA,0.0217
19,AAATTGAT,0.159
20,ATTTGTGA,0.0908
21,ATGGAAAA,0.158
22,ACCTCCAA,-0.232
23,ACGGGTCA,-0.191
24,AATAACAC,-0.111
25,GACCAAGC,-0.0879

row,Sequence,PBM E-score
1,AAACCCAG,-0.0251
2,ACATCAAC,0.224
3,CCACCAAG,-0.287
4,GGACAAAC,0.0117
5,ATCAATGC,0.0054
6,AACATCCA,-0.123
7,ATAGCCAG,-0.172
8,GAAAAGGA,0.136
9,CGTTAATA,0.13
10,ATTAAGTA,0.144
11,GGGACAAC,-0.0988
12,CGGTTAGC,0.0658
13,CAATCAGG,0.0527
14,TATGACAA,0.219
15,GGGAAAAC,-0.00619
16,CAAGCTTA,-0.0128
17,GACTGTCC,-0.107
18,GCCGGCCC,0.343
19,CGTAAGTC,-0.00193
20,ACCATTCG,-0.0973
21,ATTGCAAA,0.197
22,AATCTGAG,-0.0818
23,CTTTAAAA,0.182
24,GTGCCCAA,-0.0746
25,GAGTATAC,0.0205

row,Sequence,PBM E-score
1,CAATACGA,0.0856
2,ACGGTCTG,0.0726
3,CAGCTACA,-0.17
4,GCCTTGCC,-0.0712
5,GACTAAGC,0.0141
6,GCACCGGC,0.234
7,TACAAGTA,-0.0668
8,CGTGCCGA,0.289
9,ATCCTACG,-0.149
10,AGGGCGTA,-0.155
11,GGGTACGA,-0.0885
12,ATCTACAT,0.124
13,CCCACTTC,-0.0683
14,ATATCCAG,-0.0198
15,ATAATCCA,0.137
16,ATAGGGAG,-0.359
17,CCGGTCGA,0.141
18,AAACATAA,-0.0233
19,TAAACATA,0.178
20,ATTTGTTG,0.0877
21,ACTAGTCT,-0.156
22,AGGCAAAG,-0.0885
23,AATGGAGA,-0.0475
24,CGGTAGGA,-0.0428
25,AGGGATAA,0.0505

# 38 entries from above, with tabs:
row	Sequence	PBM E-score
2	ATATTAGG	0.0437
4	CGACAAGC	-0.166
5	CGCTGTGC	-0.0524
6	CCGGGAGC	0.162
7	CCAAAGTA	-0.0504
8	AGGCTGAG	-0.173
9	CAAACCAC	-0.145
17	TCCTGCCA	-0.22
19	AAATTGAT	0.159
21	ATGGAAAA	0.158
24	AATAACAC	-0.111
1	AAACCCAG	-0.0251
3	CCACCAAG	-0.287
4	GGACAAAC	0.0117
6	AACATCCA	-0.123
7	ATAGCCAG	-0.172
8	GAAAAGGA	0.136
10	ATTAAGTA	0.144
11	GGGACAAC	-0.0988
15	GGGAAAAC	-0.00619
17	GACTGTCC	-0.107
18	GCCGGCCC	0.343
19	CGTAAGTC	-0.00193
20	ACCATTCG	-0.0973
1	CAATACGA	0.0856
2	ACGGTCTG	0.0726
3	CAGCTACA	-0.17
4	GCCTTGCC	-0.0712
6	GCACCGGC	0.234
8	CGTGCCGA	0.289
9	ATCCTACG	-0.149
11	GGGTACGA	-0.0885
13	CCCACTTC	-0.0683
14	ATATCCAG	-0.0198
17	CCGGTCGA	0.141
18	AAACATAA	-0.0233
20	ATTTGTTG	0.0877
21	ACTAGTCT	-0.156

# The list continues:

row,Sequence,PBM E-score
1,GACCCTGC,-0.0758
2,GCCGCCGA,0.264
3,ATTCACGA,0.0428
4,CTGTTATA,0.109
5,ACGACGAG,-0.218
6,AAGCTATT,-0.0139
7,GATTGTAA,0.158
8,AAACGGAG,0.152
9,CAACTTAG,0.14
10,GATGTTCA,-0.0235
11,GACGGTCC,-0.0736
12,ACAAGTTG,-0.0672
13,GCCAACGA,-0.0411
14,AAATTTAG,0.246
15,AACAAACA,0.254
16,CCGGAGCG,0.228
17,CAACGGGC,0.0443
18,CCTGCGTC,-0.204
19,TCTGTTAA,0.0915
20,AAACCCCT,-0.294
21,ACATGAGA,0.0734
22,ATTAGAAC,0.192
23,AGCACGCA,-0.0396
24,GGTAAGCA,-0.146
25,ACGGGTTG,-0.116

row,Sequence,PBM E-score
1,ATGGGCGC,-0.223
2,CTACGCCA,-0.234
3,CCGAAGTC,0.159
4,GCACACCC,-0.238
5,ACTACGCT,-0.176
6,TGCATCCA,-0.108
7,TCAGGGCA,-0.141
8,CAACCTCA,-0.202
9,CGGAAGAA,0.293
10,CTACTGCC,-0.179
11,GCCCTTGA,-0.225
12,TAGATGAA,0.0708
13,CCCGCAAC,0.168
14,CGGTGGCC,0.0286
15,ACGCTAGT,0.0345
16,AAAAACTG,-0.124
17,GAGGCTAA,-0.0329
18,CGGCAGGA,0.122
19,AAGCCTCT,-0.281
20,AAGGTGAG,-0.133
21,AAGCTGCA,-0.0649
22,CAAATTGA,-0.128
23,TACGAACA,0.178
24,CAGAGCTC,-0.139
25,GCGCGACA,0.0188

row,Sequence,PBM E-score
1,GCACCAAC,-0.016
2,GAGTTACC,-0.0353
3,ACGGTTCA,-0.19
4,ACGGGCTC,-0.234
5,AGAGATCT,-0.168
6,AGGCACAA,-0.0238
7,GAACCGTC,-0.0897
8,GGGAATGA,0.126
9,GAGGTGCC,0.0277
10,GCCACTTA,-0.206
11,TACGACTA,-0.0569
12,ATCTATTG,0.11
13,AGACGCGG,0.121
14,CCCCACTA,-0.344
15,CAGCATAC,-0.217
16,AACATATG,-0.00254
17,AACTTAAT,0.205
18,ACATAGTA,0.09
19,AGGGTAAA,-0.00637
20,CCAATCAA,-0.00381
21,CTATGCGA,-0.211
22,CCTTGAGA,-0.0348
23,ACCAGATC,-0.107
24,CATGACCA,-0.139
25,ATAATCAT,0.194

row,Sequence,PBM E-score
1,CCCGTGCG,0.131
2,GGCTAGCA,-0.116
3,ACAACGCG,0.0628
4,GAGTGTAA,-0.229
5,CGATCCTA,-0.167
6,AGGGAACC,-0.101
7,GAGCTCGC,0.0706
8,AAGGAAAA,0.144
9,CCAGTATC,-0.197
10,AGGGCAAT,-0.111
11,AAGGCGGC,-0.0217
12,CATAATCC,-0.0979
13,AGAACAGG,-0.0745
14,TTGTTAAA,0.227
15,GCGCAGTA,-0.0507
16,GATCGTCC,-0.0573
17,ACTACGTC,-0.225
18,GAATGGGA,-0.228
19,ATATCTTC,0.122
20,CTTGCCCC,-0.119
21,CACGGTTC,-0.0841
22,CCGAATTA,0.231
